Consider 14 molecules from the supplement of paper PMC4604168 (melanoma cell lines).

This is one part of the list. Many values rest on one well or one pass, so single values are uncertain.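 Cells were imaged in 1,536-well plates, and nuclei stained with an antibody against cleaved PARP were counted against all DNA-stained nuclei to give the apoptosis fraction. Screening doses were chosen to leave most cells alive, and resting and induced cleaved-PARP levels differ strongly between cell lines.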

The test system of one test is A2058. Nature of the test: cleaved PARP positive nuclei fraction relative to DMSO control; melanoma cells; higher = more apoptosis. As to conditions: library dose: low library concentration; 72 h.
Consider `Cn1cnc2c(F)c(Nc3ccc(Br)cc3Cl)c(C(=O)NOCCO)cc21` [selumetinib] + Oc1cc(-c2nc(-c3ccccc3)[nH]c2-c2ccncc2)ccc1Cl [L779450] (first compound 0.015 µM, partner dose 0.2 µM), for which the “cleaved PARP positive nuclei fraction” value was 67.8%. Consider `Cn1sc(=O)n(Cc2ccccc2)c1=O` + CCCCCCCCCCCC1=C(O)C(=O)C=C(O)C1=O [Embelin] (first compound 0.4 µM, partner dose 1.2 µM), for which the “cleaved PARP positive nuclei fraction” value came to 88.6%.

As for `CCN(CC)CCNC(=O)c1c(C)[nH]c(/C=C2\C(=O)Nc3ccc(F)cc32)c1C` [sunitinib] + CCc1ccc(CCOc2ccc(CC3SC(=O)NC3=O)cc2)nc1 [pioglitazone] (first compound 0.4 µM, partner dose 2 µM), the “cleaved PARP positive nuclei fraction” value came to 80.4%.

In a further test the test system is A375. The test is described as above. As to conditions: library dose: low library concentration; 72 h.
On to `C[C@]1(O)C[C@@H](c2nc(-c3ccc4ccc(-c5ccccc5)nc4c3)c3c(N)nccn32)C1` + C[C@@H]1CCN(C(=O)CC#N)C[C@@H]1N(C)c1ncnc2[nH]ccc12 [CP690550] (first compound 0.4 µM, partner dose 1 µM), for which the “cleaved PARP positive nuclei fraction” value was 106%. For `Cn1sc(=O)n(Cc2ccccc2)c1=O` + NCC(=O)Nc1ccc(-n2nc(C(F)(F)F)cc2-c2ccc3c(ccc4ccccc43)c2)cc1 [OSU03012] (first compound 0.4 µM, partner dose 1 µM), the “cleaved PARP positive nuclei fraction” value is 2250%.

Turning to `CCCCCCCCc1ccc(CCC(N)(CO)CO)cc1` [fingolimod] + O=C(CCCCCCC(=O)Nc1ccccc1)NO [vorinostat] (first compound 2 µM, partner dose 0.08 µM), the “cleaved PARP positive nuclei fraction” value is 105%. In the case of `CCCCCCCCc1ccc(CCC(N)(CO)CO)cc1` [fingolimod] + Cc1ccc(NC(=O)c2cccc(N(C)C)c2)cc1NC(=O)c1ccc(O)cc1 [ZM336372] (first compound 2 µM, partner dose 2 µM), the “cleaved PARP positive nuclei fraction” value turned out to be 44%. The same measure, in the same setting: then `CCN(CC)CCNC(=O)c1c(C)[nH]c(/C=C2\C(=O)Nc3ccc(F)cc32)c1C` [sunitinib] + CC1(C)NC(=O)N(c2ccc([N+](=O)[O-])c(C(F)(F)F)c2)C1=O [nilutamide] (first compound 0.4 µM, partner dose 1 µM), with 40.8%; and `CN(c1ncccc1CNc1nc(Nc2ccc3c(c2)CC(=O)N3)ncc1C(F)(F)F)S(C)(=O)=O` + COc1cc2c(Oc3ccc4[nH]c(C)cc4c3F)ncnc2cc1OCCCN1CCCC1 [cediranib] (first compound 0.08 µM, partner dose 0.4 µM), with 85.7%. The same measure, in the same setting: the result for `CC1(C)CCC(c2ccc(Cl)cc2)=C(CN2CCN(c3ccc(C(=O)NS(=O)(=O)c4ccc(N[C@H](CCN5CCOCC5)CSc5ccccc5)c(S(=O)(=O)C(F)(F)F)c4)cc3)CC2)C1` + O=C(Nc1cccc(Cl)c1)Nc1ncc(CCNc2ncnc3ccsc23)s1 [SNS314] (first compound 0.4 µM, partner dose 0.0008 µM) reads 170%. Same read-out and setting: then `NC1(c2ccc(-c3nc4ccn5c(=O)[nH]nc5c4cc3-c3ccccc3)cc2)CCC1` + Cc1cc(N2CCOCC2)cc2[nH]c(-c3c(NC[C@@H](O)c4cccc(Cl)c4)cc[nH]c3=O)nc12 [BMS536924] (first compound 0.4 µM, partner dose 0.2 µM), with 387%; and `CS(=O)(=O)c1ccc(C(=O)Nc2ccc(Cl)c(-c3ccccn3)c2)c(Cl)c1` [vismodegib] + CN(NC(=O)CC(=O)NN(C)C(=S)c1ccccc1)C(=S)c1ccccc1 [STA4783] (first compound 1 µM, partner dose 0.006 µM), with 2840%. For `Cn1cnc2c(F)c(Nc3ccc(Br)cc3Cl)c(C(=O)NOCCO)cc21` [selumetinib] + C=CCNC1=C2C[C@@H](C)C[C@H](OC)[C@H](O)[C@@H](C)/C=C(\C)[C@H](OC(N)=O)[C@@H](OC)/C=C\C=C(/C)C(=O)NC(=CC1=O)C2=O [Tanespimycin] (first compound 0.015 µM, partner dose 0.002 µM), the “cleaved PARP positive nuclei fraction” value came out at 105%.

`CC1(C)CCC(c2ccc(Cl)cc2)=C(CN2CCN(c3ccc(C(=O)NS(=O)(=O)c4ccc(N[C@H](CCN5CCOCC5)CSc5ccccc5)c(S(=O)(=O)C(F)(F)F)c4)cc3)CC2)C1` + Nc1nc(F)nc2c1ncn2[C@@H]1O[C@H](CO)[C@@H](O)[C@@H]1O [fludarabine] (first compound 0.4 µM, partner dose 0.2 µM): the “cleaved PARP positive nuclei fraction” value amounted to 4660%.
